Data as given in the supplement of paper PMC5949888.
Most values lie at the floor of the assay. Slopes are relative: functional sequences can read slightly below zero.

The substances below were run on Saccharomyces cerevisiae PS128 hsf1 delta, HSF1(1-493) fusion (assay: growth estimate (transactivation domain function in HSF1 fusion, heat-shock survival) (a.u. (slope of normalised read count over time)); higher = stronger growth at 37°C, i.e. more transactivation activity). Conditions: library: random library.

Substance | growth estimate
DRG | < -0.25
GSDLRISRELFVAVTDLTNP | < -0.25
FSLPDFSWT | 0.107
VSAYVAGVESRIVAWFLVHA | < -0.25
YRCRSCRVKGEFP | < -0.25
SLPA | < -0.25
NSRAYNATGEVRVWRSGIVP | < -0.25
SKYQHRTVGTAYHCASRRLR | < -0.25
TLPLATTKISTVTHPDRINA | < -0.25
KRPA | < -0.25
TSHYQGQALDKTGNMLVEGD | < -0.25
SELSS | < -0.25
FSAGK | < -0.25
STPDTAVPVLY | 0.0518
RDLLERQRGMARYVM | < -0.25
QVY | < -0.25
PIVVRTLPRAMIEYLRCVED | < -0.25
PPDSRISTCRDRRMKDKAHT | < -0.25
PCWRGCCRRLRKRRPNDVPS | < -0.25
VGEVVTTWVDVSV | 0.19
SQAIIPDIDGLLSWWNEAYA | < -0.25
AERRPTKV | < -0.25
HRGSQVPICGVWAHTTQHYD | < -0.25
QKDGRVFIDNKRR | 0.021
TSKPTFFQWS | < -0.25
KYICYNSEHSSLTLLISRVD | < -0.25

Substance | growth estimate
VGGSGGRLDSLCCGYRGHQK | < -0.25
RPGRCAATTTNILWWAKSTV | < -0.25
LPHPKVV | < -0.25
PSGTTNFDHG | < -0.25
WCEGI | < -0.25
RSRVGLTVVF | < -0.25
KLFTGIPCKVE | < -0.25
VQIPLVILVRDLLGPVTWNA | < -0.25
YGVTWC | < -0.25
TIESTGAHRSGGSRLLLLFT | < -0.25
TSGNGLAFDG | < -0.25
FAERSNIMR | < -0.25
TAGRPRT | < -0.25
ASGG | -0.222
AWVRLRTV | < -0.25
STCRNEYTFQGFC | < -0.25
TVDIRGTAHAPSTVHPTTVP | < -0.25
VGSVRFCLFSLRVAHRAFCC | < -0.25
APQWET | < -0.25
NLPLIWILEGNTSGYSSGGL | < -0.25
GKALVL | < -0.25
RHSVRLSVINYRRYGRANCS | < -0.25
SVTTI | < -0.25
SSAVQ | < -0.25
HALPAKLRRHTLAKGFASWE | < -0.25
DVIRR | < -0.25

Substance | growth estimate
RRIVH | < -0.25
YIDT | < -0.25
EPRQCHSRIACN | < -0.25
ITPGRCFYLGLSTAKGRPLS | < -0.25
SSVRHQPEHDIIWGCGLNCQ | < -0.25
SGRGLCDVWLT | < -0.25
PGDSMKHLPDASKVCAESMV | < -0.25
PSPGPGINTRSFGFR | < -0.25
TLPA | < -0.25
SMYVLVRFRA | < -0.25
RLQYGQ | < -0.25
VPVMQGIDGLALQEDFDPKV | < -0.25
FIGC | < -0.25
RGVETGCVREG | < -0.25
ITCLNAR | < -0.25
LGARFKSVLSVQVTTRTYNP | < -0.25
HQSLSSATCQHSRHGHRDAH | < -0.25
SRGHSPWYDA | < -0.25
YNAKLPRRAR | < -0.25
ALG | < -0.25
LQLLEPANGAPSDEPARLNP | < -0.25
ILLPCDVDAEHV | < -0.25
TLVRHSIVIPGYSTADSDGR | < -0.25
AGDPMLR | < -0.25
SATRSSDAMRVHRAFAI | < -0.25
EKASGTRVLKSRCIATGDLS | < -0.25

Reformatted: entries from further up
Substance	growth estimate
ALG	< -0.25
LQLLEPANGAPSDEPARLNP	< -0.25
ILLPCDVDAEHV	< -0.25

Another view of part of the listing above:
Substance	growth estimate
RHSVRLSVINYRRYGRANCS	< -0.25
SVTTI	< -0.25

(further entries)

Substance | growth estimate
PSRRASHLGCTLRLTRRKLF | < -0.25
DAG | -0.245
RVPVLEH | < -0.25
GPQDATLGGTSEKWYLLRSP | < -0.25
DIRTSYSQRPTREELFDSDS | < -0.25
VDSGATIPINLQHCGKTRGS | -0.243
RIGFLVTTRPKSRI | < -0.25
ASVIGIIRLRRRWGIVFGLI | < -0.25
GLSF | < -0.25
FAFCLSFLPFYFPIPDKVYD | < -0.25
SRLSTMAERTPSRF | < -0.25
EQVTQVSLREGLRISVMPND | < -0.25
FVRGEQSICEIISFS | < -0.25
FEPILCVLGTAFSSFQTAPT | < -0.25
NIGGRGGTGASTSVDFPRPY | < -0.25
LRTSARRQYGVELVIRY | < -0.25
GSYISGYLPERCDLGGSR | < -0.25
VASRVVLDRPDVSRVIGTVN | < -0.25
CGSCSANIPPYHRTGMGAHA | < -0.25
GKATLFSSGRVNLHGVRVGC | < -0.25
KCILRPQ | -0.198
RGMLKGDRSVWGSMVVLVGT | < -0.25
LFAGPTAGGVAAKLTCGDK | < -0.25
